These are yes or no findings as the source states them, for the method shown. In cells and extracts the contact can be indirect. Some results given as binding are weak or reduced against the parent protein; the word gives no strength. For some assays here: Sequences can lack the tags named with a protein.

Amino acid sequences for entries named in this document (tags omitted).
UniProt Q9UKB1: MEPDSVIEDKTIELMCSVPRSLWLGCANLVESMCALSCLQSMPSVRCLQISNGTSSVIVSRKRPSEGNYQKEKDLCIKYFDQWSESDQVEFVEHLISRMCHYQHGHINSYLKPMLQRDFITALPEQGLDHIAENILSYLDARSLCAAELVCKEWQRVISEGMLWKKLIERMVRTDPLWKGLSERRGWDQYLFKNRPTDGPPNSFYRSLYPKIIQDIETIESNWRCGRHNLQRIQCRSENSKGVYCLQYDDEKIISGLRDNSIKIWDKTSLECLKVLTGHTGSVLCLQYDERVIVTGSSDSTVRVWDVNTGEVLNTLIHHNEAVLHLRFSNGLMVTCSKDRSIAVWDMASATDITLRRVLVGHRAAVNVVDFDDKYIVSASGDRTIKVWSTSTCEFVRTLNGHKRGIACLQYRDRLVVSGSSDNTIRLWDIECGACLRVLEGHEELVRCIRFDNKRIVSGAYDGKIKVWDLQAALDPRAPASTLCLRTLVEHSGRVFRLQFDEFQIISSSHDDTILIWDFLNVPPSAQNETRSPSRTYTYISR

Assay [1] addresses 3X-Flag-tagged Hendra virus matrix protein (transfected HEK 293T) (Hendra virus) (UniProt O89341). The experiment in a line: co-IP.
Assay [2] deals with T1, 3X-Flag-tagged Sendai virus matrix protein (transfected HEK 293T) (Sendai virus) (UniProt P06446).
T1 sequence: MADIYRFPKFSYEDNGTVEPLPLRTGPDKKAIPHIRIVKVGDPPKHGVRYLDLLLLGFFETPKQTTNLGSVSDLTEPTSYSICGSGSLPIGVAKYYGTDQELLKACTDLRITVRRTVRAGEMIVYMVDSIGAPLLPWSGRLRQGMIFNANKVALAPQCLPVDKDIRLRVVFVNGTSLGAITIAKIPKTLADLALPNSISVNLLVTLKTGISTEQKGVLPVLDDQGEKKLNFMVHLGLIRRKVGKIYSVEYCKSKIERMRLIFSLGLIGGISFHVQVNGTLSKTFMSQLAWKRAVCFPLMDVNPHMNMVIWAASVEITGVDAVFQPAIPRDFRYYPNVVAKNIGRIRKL
Kind of assay: co-IP.

On to “Cul1 adaptor FBXW11 (from UniProt Q9UKB1 1-542)”, for which the binding entry is “binds” in assay [1] and “no binding” in assay [2].

The record behind these values is PMC4363627.
